Experimental data: article PMC7606486, “CFAP45 deficiency causes situs abnormalities and asthenospermia by disrupting an axonemal adenine nucleotide homeostasis module” (Nature Communications, 2020)

How the values were obtained:
[1] = target: recombinant respiratory-specific, truncated (p25) CFAP45 isoform (mouse); test: co-IP; recombinant, epitope-tagged proteins co-expressed in HEK293 cells; immunoprecipitation of the bait; details only in supplementary figures
[2] = target: recombinant, epitope-tagged CFAP52 (552 amino acid isoform) (human); test: as above

binding [1]: no binding
binding [2]: binds
B1: recombinant AK8 (enzyme, UniProt Q96MA6-1 1-479)
chain: MDATIAPHRIPPEMPQYGEENHIFELMQNMLEQLLIHQPEDPIPFMIQHLHRDNDNVPRIVILGPPASGKTTIAMWLCKHLNSSLLTLENLILNEFSYTATEARRLYLQRKTVPSALLVQLIQERLAEEDCIKQGWILDGIPETREQALRIQTLGITPRHVIVLSAPDTVLIERNLGKRIDPQTGEIYHTTFDWPPESEIQNRLMVPEDISELETAQKLLEYHRNIVRVIPSYPKILKVISADQPCVDVFYQALTYVQSNHRTNAPFTPRVLLLGPVGSGKSLQAALLAQKYRLVNVCCGQLLKEAVADRTTFGELIQPFFEKEMAVPDSLLMKVLSQRLDQQDCIQKGWVLHGVPRDLDQAHLLNRLGYNPNRVFFLNVPFDSIMERLTLRRIDPVTGERYHLMYKPPPTMEIQARLLQNPKDAEEQVKLKMDLFYRNSADLEQLYGSAITLNGDQDPYTVFEYIESGIINPLPKKIP

binding [2]: binds
B2: recombinant DNAI1 (protein, UniProt Q9UI46 1-699)
chain: MIPASAKAPHKQPHKQSISIGRGTRKRDEDSGTEVGEGTDEWAQSKATVRPPDQLELTDAELKEEFTRILTANNPHAPQNIVRYSFKEGTYKPIGFVNQLAVHYTQVGNLIPKDSDEGRRQHYRDELVAGSQESVKVISETGNLEEDEEPKELETEPGSQTDVPAAGAAEKVTEEELMTPKQPKERKLTNQFNFSERASQTYNNPVRDRECQTEPPPRTNFSATANQWEIYDAYVEELEKQEKTKEKEKAKTPVAKKSGKMAMRKLTSMESQTDDLIKLSQAAKIMERMVNQNTYDDIAQDFKYYDDAADEYRDQVGTLLPLWKFQNDKAKRLSVTALCWNPKYRDLFAVGYGSYDFMKQSRGMLLLYSLKNPSFPEYMFSSNSGVMCLDIHVDHPYLVAVGHYDGNVAIYNLKKPHSQPSFCSSAKSGKHSDPVWQVKWQKDDMDQNLNFFSVSSDGRIVSWTLVKRKLVHIDVIKLKVEGSTTEVPEGLQLHPVGCGTAFDFHKEIDYMFLVGTEEGKIYKCSKSYSSQFLDTYDAHNMSVDTVSWNPYHTKVFMSCSSDWTVKIWDHTIKTPMFIYDLNSAVGDVAWAPYSSTVFAAVTTDGKAHIFDLAINKYEAICNQPVAAKKNRLTHVQFNLIHPIIIVGDDRGHIISLKLSPNLRKMPKEKKGQEVQKGPAVEIAKLDKLLNLVREVKIKT

Results are given in words; binding and its absence hold for the method and conditions named. In cells and extracts the contact can be indirect. For part of these data: Binding can be weak; no strength is given. Each block holds one binder with its values, some of them ahead of it.
